Source: PMC7819943, “Rice protein-binding microarrays: a tool to detect cis-acting elements near promoter regions in rice”
This is one part of the list.

The sequences below were run against T1, OsSMF1 (Oryza sativa, UniProt Q6ZLB0 1-436) (assay: protein-binding microarray (RPBM); PBS, 2% BSA, 51.3 ng/ul salmon testes DNA, 50 uM zinc acetate, 200 nM TF, 25 C, 1 h; high values mean tight binding). Conditions: protein: recombinant; tags: N-terminal polyhistidine and DsRed monomer fusion (pET32a); chain copies: 2; label: CyDye5-dUTP incorporated in the synthesized complementary strand; 3' TTTTT single-stranded linker to array surface; dsDNA, one strand shown.
T1 sequence: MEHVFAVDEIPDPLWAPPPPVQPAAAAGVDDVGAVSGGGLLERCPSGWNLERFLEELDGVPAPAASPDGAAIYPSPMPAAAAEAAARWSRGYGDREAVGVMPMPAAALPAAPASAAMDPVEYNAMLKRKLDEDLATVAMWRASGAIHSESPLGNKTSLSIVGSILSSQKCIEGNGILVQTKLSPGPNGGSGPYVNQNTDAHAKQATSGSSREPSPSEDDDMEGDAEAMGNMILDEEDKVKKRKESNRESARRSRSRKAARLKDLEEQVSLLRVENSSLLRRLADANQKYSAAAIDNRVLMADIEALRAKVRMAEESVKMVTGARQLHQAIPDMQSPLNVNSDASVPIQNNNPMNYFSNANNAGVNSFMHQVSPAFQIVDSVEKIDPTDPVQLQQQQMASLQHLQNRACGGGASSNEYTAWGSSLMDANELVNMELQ
How it was run: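 Using Ni–NTA, transcription factors fused N-terminally to polyhistidine and DsRed were purified after expression in E. coli BL21-CodonPlus. These were incubated at 200 nM with a blocked, double-stranded custom Agilent array for 1 h at 25 °C in a buffer containing 50 µM zinc acetate, and the array was washed. The binding signal is per-feature fluorescence intensity (arbitrary units) on an Axon 4000B scanner.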

Sequence	binding signal
GTGTGAAAGGGCAATTTCAAGGGGTGAGGGGTTCGCGTGGCGGAGTCACCTAGTGCAG	3260 fluorescence intensity (a.u.)
TATTTCTATATATAAAGTTTACACGTGCAAAGTTTTATTTCGGAGTCACCTAGTGCAG	4230 fluorescence intensity (a.u.)
AAGTCCTCTTCCTCTTCATCATAATCGTCACCCACGCGCCCGGAGTCACCTAGTGCAG	3220 fluorescence intensity (a.u.)
AGAAGCAAGCAGACGCCACGCCACGGAAGAATCTAGAACCCGGAGTCACCTAGTGCAG	3450 fluorescence intensity (a.u.)
GATGGCATCCCCGAGTGATTGAAAGAGTTTCCTCTCTCTTCGGAGTCACCTAGTGCAG	37500 fluorescence intensity (a.u.)
ACGCCCACGACATCGAAGCAAAGCCCCGCGGTTTACGTGCCGGAGTCACCTAGTGCAG	3410 fluorescence intensity (a.u.)
AAAGCCAGAACACAACTAAATCACATCATGAAACATTTTGCGGAGTCACCTAGTGCAG	30400 fluorescence intensity (a.u.)
GCCATGGGCCCCACCTGGCGCGTGTCCGCTATAAATACCCCGGAGTCACCTAGTGCAG	3390 fluorescence intensity (a.u.)
TCCTTCACCCACCGATCGATTCGATCTGACCGCGCCGCCGCGGAGTCACCTAGTGCAG	3360 fluorescence intensity (a.u.)
TCATGTTGTGACAGCATCTTTGAAAACAAGAAATTGCTCACGGAGTCACCTAGTGCAG	33700 fluorescence intensity (a.u.)
TGTTGATGGCGTCATTATTTACATGGTATGGTGCATTTGGCGGAGTCACCTAGTGCAG	14600 fluorescence intensity (a.u.)
GTAAGATGACTCTGTAGTTGGCTATGTCCACACCAGGCACCGGAGTCACCTAGTGCAG	3620 fluorescence intensity (a.u.)
TACTTAACGGTTTCTGTCTTCTTTTGGTAGGCCCTCGCTGCGGAGTCACCTAGTGCAG	3520 fluorescence intensity (a.u.)
ACCGCCACCGCGACCGCCGCCGCAGCAAGCAGCGTCATCCCGGAGTCACCTAGTGCAG	3660 fluorescence intensity (a.u.)
TCATACACATACAACTTTTCAGTCACATCATTTACAATTTCGGAGTCACCTAGTGCAG	29000 fluorescence intensity (a.u.)
AAAACCCAATTAGTCATACATTATTACCACATCGTTTTACCGGAGTCACCTAGTGCAG	3700 fluorescence intensity (a.u.)
GCGTGGTGTGTACTCCTGCTGTCCCTGCTGCGGCTACAGCCGGAGTCACCTAGTGCAG	4410 fluorescence intensity (a.u.)
ATTTTGTCTTAGTTCTTGAAACGTCACACACGCTGATGGCCGGAGTCACCTAGTGCAG	3780 fluorescence intensity (a.u.)
AGGCGGAGACGAGTCGGCGGCGGCGGCGATGGCTGACCCCCGGAGTCACCTAGTGCAG	24800 fluorescence intensity (a.u.)
CCGGCTGATGTGGCGGCACTGCTGCCTGCCTCACTAATCCCGGAGTCACCTAGTGCAG	8500 fluorescence intensity (a.u.)
TCCCACCCTATTTCCGACGCCACGCTGTTGCCACATCAGACGGAGTCACCTAGTGCAG	8980 fluorescence intensity (a.u.)
CAACAAACGTCCCCGGTGATGATGTGGATCACCACAACAACGGAGTCACCTAGTGCAG	5060 fluorescence intensity (a.u.)
TGTGCATGTCCACGTGTTATCGCTTTCCTCACAATTCATCCGGAGTCACCTAGTGCAG	12600 fluorescence intensity (a.u.)
TATCATATCCGTGTGGCATGCCACATCAACGCCACGTAGGCGGAGTCACCTAGTGCAG	25500 fluorescence intensity (a.u.)
TTCTTTCGTTAGTTCACCAAAGATGGGCATTTTACTAAGACGGAGTCACCTAGTGCAG	65000 fluorescence intensity (a.u.)
GTTTCTTATTTTATGAATGGTATGAGTAAGAATATGTTTGCGGAGTCACCTAGTGCAG	3690 fluorescence intensity (a.u.)
GTTCATACTACTGATGTCAGCATTGTCTTGCACTTTCCTACGGAGTCACCTAGTGCAG	16300 fluorescence intensity (a.u.)

Reprinted at random: three records from the list, in no set order.
Sequence	binding signal
ACCGCCACCGCGACCGCCGCCGCAGCAAGCAGCGTCATCCCGGAGTCACCTAGTGCAG	3660 fluorescence intensity (a.u.)
ACGCCCACGACATCGAAGCAAAGCCCCGCGGTTTACGTGCCGGAGTCACCTAGTGCAG	3410 fluorescence intensity (a.u.)
TATTTCTATATATAAAGTTTACACGTGCAAAGTTTTATTTCGGAGTCACCTAGTGCAG	4230 fluorescence intensity (a.u.)

Laid out differently: entries from further up.
Sequence,binding signal
GATGGCATCCCCGAGTGATTGAAAGAGTTTCCTCTCTCTTCGGAGTCACCTAGTGCAG,37500 fluorescence intensity (a.u.)
TACTTAACGGTTTCTGTCTTCTTTTGGTAGGCCCTCGCTGCGGAGTCACCTAGTGCAG,3520 fluorescence intensity (a.u.)

Further results follow:

Sequence	binding signal
GTACAATCTGATGCTATGAGTAATATACAACTAATGCTACCGGAGTCACCTAGTGCAG	3220 fluorescence intensity (a.u.)
GCCTCTGTGAGAGAACAACGTGGAAGGCCATTATTTCTTGCGGAGTCACCTAGTGCAG	19100 fluorescence intensity (a.u.)
CCCGACGTACTACGCGCCCACGCACGCACGACGGGACGGCCGGAGTCACCTAGTGCAG	4330 fluorescence intensity (a.u.)
GGTAGGGTGGGGATGGGGTGTGTGCTAGCAATCCCGGTGGCGGAGTCACCTAGTGCAG	4380 fluorescence intensity (a.u.)
TCATTTCCTCAGCAAGGTCATGTGCTAGTGCTTGTCACTGCGGAGTCACCTAGTGCAG	3460 fluorescence intensity (a.u.)
GTTCCTCACCAGCCTCGTTGAGATCAGGTCTAAGGCGTCACGGAGTCACCTAGTGCAG	3870 fluorescence intensity (a.u.)
TCCATAGATTCTCCCTGCATTTTGTTCTTGGCAGACTATTCGGAGTCACCTAGTGCAG	3500 fluorescence intensity (a.u.)
CAGGTAACTACAGTGTAACTTGTATATAAGTTTCACGTAACGGAGTCACCTAGTGCAG	34700 fluorescence intensity (a.u.)
GCGTGCGGGCGCGGCCGGTGGAAAGGTGGGGCGGCCCAAACGGAGTCACCTAGTGCAG	20800 fluorescence intensity (a.u.)
ATGTATGATAAACTAAAGCCTGACTCTTCTATGCTTCTTGCGGAGTCACCTAGTGCAG	3340 fluorescence intensity (a.u.)
CGTGCCACACCCCGCACGTGCGCAAGTCCATGACGTGAGCCGGAGTCACCTAGTGCAG	4660 fluorescence intensity (a.u.)
ATCGGGGTCGTCACCGCTGGCCAGCACCCCAAGCCTCTGTCGGAGTCACCTAGTGCAG	3320 fluorescence intensity (a.u.)
TAGAATTTCTCTTCATATAATGCTACGTCATTGCTATATACGGAGTCACCTAGTGCAG	10300 fluorescence intensity (a.u.)
GACATGTACACATTAGACTTTGGCAGGAAATTATACTGGCCGGAGTCACCTAGTGCAG	19900 fluorescence intensity (a.u.)
CTGCCCAACAAAGTCCAGAAACTTCACGACATTCAATTGCCGGAGTCACCTAGTGCAG	22600 fluorescence intensity (a.u.)
AGAGGCGAAATCGCGGCTACGGAGGCGGCGGCGGTGGCGGCGGAGTCACCTAGTGCAG	3390 fluorescence intensity (a.u.)
GACGCTCCACGACGCCCACTGCACTCCCGACACGTTTCCCCGGAGTCACCTAGTGCAG	5020 fluorescence intensity (a.u.)
GGATCCATGCCCGGGCCTCCACCCTCGTCAGCTCTGTTGACGGAGTCACCTAGTGCAG	4860 fluorescence intensity (a.u.)
CTCCAAGTATGACATGGACGAGGACATGTCGATACAGGAGCGGAGTCACCTAGTGCAG	31800 fluorescence intensity (a.u.)
TATCCTAAAATAAATACACGTAGTACGTAATGTGGTTCCACGGAGTCACCTAGTGCAG	4360 fluorescence intensity (a.u.)
TAATACTCTAAATATGTGTCTAAATATCCGATGTGACAGTCGGAGTCACCTAGTGCAG	30000 fluorescence intensity (a.u.)
TGTTCTCCTAGTGATGTTTAGTTGGTTAGTAATGAGGTGGCGGAGTCACCTAGTGCAG	5640 fluorescence intensity (a.u.)
ATCATTCTCCACGTACGCATGCCTCTCTTGCGTGTTATCGCGGAGTCACCTAGTGCAG	15400 fluorescence intensity (a.u.)
AAAACAGAGGAGTATTCTTATGACGCTGTCAACAAGTTTACGGAGTCACCTAGTGCAG	5630 fluorescence intensity (a.u.)
AGGTACAATAATGACATGGCGTAAAGGCCATTGCAATACTCGGAGTCACCTAGTGCAG	5380 fluorescence intensity (a.u.)
ATAAATAATTTGCTGACTGGATTGCCACGCGTACGCCACGCGGAGTCACCTAGTGCAG	12000 fluorescence intensity (a.u.)
CGATTCATCCAGCGATTAGATGGGCCATCGTACCGGCAGGCGGAGTCACCTAGTGCAG	3220 fluorescence intensity (a.u.)
